{"source": "paper PMC9369282", "tested_on": "PbTCP4 (Pyrus bretschneideri)", "assay": "EMSA", "details": "EMSA as described by Zheng et al. [47], pH and temperature not stated, three independent repeats, recombinant protein, label: 3' biotin", "note": "The exact form of at least one protein or probe is not confirmed. A weaker result is weaker than the reference pair of the same experiment."}
{"sequence": "ACATGCAGGACCACTCACAGACATGCAGGACCACTCACAGACATGCAGGACCACTCACAGACATGCAGGACCACTCACAG (double strand) [PbVND7 promoter probe (PbVND7-Bio-3')]", "values": [{"measurement": "binding result", "value": "binds"}, {"measurement": "binding result", "setting": "preincubated with PbXND1-HIS (P2), DNA binding of PbTCP4 compromised", "value": "binds more weakly"}]}
